No constants are given. Whether binding was seen depends on the method and setting. Some entries that bind do so weakly or less than the wild type.
How the values were obtained:
[1] = target: C/EBP bZIP domain (chimeric GCN4-C/EBP protein) (C/EBP part: 'present in rat liver'; GCN4 part: yeast); test: CD thermal melts of mixtures
[2] = target: C/EBP bZIP domain (chimeric GCN4-C/EBP protein) (C/EBP part: 'present in rat liver'; GCN4 part: yeast); test: thermal melts of mixtures (FIG. 1)
[3] = target: C/EBP bZIP domain (chimeric GCN4-C/EBP protein) (C/EBP part: 'present in rat liver'; GCN4 part: yeast); test: CD thermal melts at 222 nm, 4 µM + 4 µM (FIG. 13B)
[4] = target: C/EBP bZIP domain (chimeric GCN4-C/EBP protein) (C/EBP part: 'present in rat liver'; GCN4 part: yeast); test: sedimentation equilibrium at 37 °C (FIG. 12)
[5] = target: C/EBP bZIP domain (chimeric GCN4-C/EBP protein) (C/EBP part: 'present in rat liver'; GCN4 part: yeast); test: summary of CD, gel shift and transfection results
[6] = target: C/EBP bZIP domain (chimeric GCN4-C/EBP protein) (C/EBP part: 'present in rat liver'; GCN4 part: yeast); test: heterodimer stability of four mutant proteins

| Binder | binding [1] | binding [3] | binding [6] | other results |
| --- | --- | --- | --- | --- |
| 4heptad-F (designed binder) ASMTGGQQMGRDPGGGLEQRAEELARENEELEKEAEELEQENAELEQEVLELESRNDRLRKEVEQLERELDTLRGIFRQLPESSLVKAMGNCA | binds | binds |  | binding [2]: binds |
| C/EBP bZIP domain (chimeric GCN4-C/EBP protein) (protein) SEYQPSLFALNPMGFSPLDGSKSTNENVSASTSTAKPMVGQLIFDKFIKTEEDPGKAKKSVDKNSNEYRVRRERNNIAVRKSRDKAKQRNVETQQKVLELTSDNDRLRKRVEQLSRELDTLRGIFRQLPESSLVKAMGNCA |  |  |  | binding [4]: binds |
| 3heptad-F (designed binder) ASMTGGQQMGRDPGGGLARENEELEKEAEELEQENAELEQEVLELESRNDRLRKEVEQLERELDTLRGIFRQLPESSLVKAMGNCA | binds | binds |  | binding [4]: binds; binding [5]: binds |
| 0heptad-F (F zipper with the basic region deleted) (designed binder) ASMTGGQQMGRDPGGGTQQEVLELESRNDRLRKEVEQLERELDTLRGIFRQLPESSLVKAMGNCA | binds | binds |  |  |
| 1heptad-F (designed binder) ASMTGGQQMGRDPGGGLEQENAELEQEVLELESRNDRLRKEVEQLERELDTLRGIFRQLPESSLVKAMGNCA | binds | binds |  |  |
| 2heptad-F (designed binder) ASMTGGQQMGRDPGGGLEKEAEELEQENAELEQEVLELESRNDRLRKEVEQLERELDTLRGIFRQLPESSLVKAMGNCA | binds | binds |  |  |
| 3heptad-F (cap) (designed binder) ASMTGGQQMGRDPGGGLARNNIAVRKSRDKAKQRNVELEQEVLELESRNDRLRKEVEQLERELDTLRGIFRQLPESSLVKAMGNCA |  |  | binds |  |
| 3heptad-F (cap, a d) (designed binder) ASMTGGQQMGRDPGGGLARNNIALRKSADKLKQRNVELEQEVLELESRNDRLRKEVEQLERELDTLRGIFRQLPESSLVKAMGNCA |  |  | binds |  |
| 3heptad-F (cap, e g) (designed binder) ASMTGGQQMGRDPGGGLARENIAVEKERDKAEQENVELEQEVLELESRNDRLRKEVEQLERELDTLRGIFRQLPESSLVKAMGNCA |  |  | binds |  |
| 3heptad-F (cap, b c) (designed binder) ASMTGGQQMGRDPGGGLARNNEEVRKSREEAKQRNAELEQEVLELESRNDRLRKEVEQLERELDTLRGIFRQLPESSLVKAMGNCA |  |  | binds |  |

— patent US20030027314A1
